Experimental data: publication PMC10613711
No constants are given. Whether binding was seen depends on the method and setting.

Chains of the proteins cited; added tags and fusions are not shown. Lines headed by an entry give the natural chain unless they say otherwise; changes in a name come on top. Residues count along the entry.
UniProt P20823, residues 83-631: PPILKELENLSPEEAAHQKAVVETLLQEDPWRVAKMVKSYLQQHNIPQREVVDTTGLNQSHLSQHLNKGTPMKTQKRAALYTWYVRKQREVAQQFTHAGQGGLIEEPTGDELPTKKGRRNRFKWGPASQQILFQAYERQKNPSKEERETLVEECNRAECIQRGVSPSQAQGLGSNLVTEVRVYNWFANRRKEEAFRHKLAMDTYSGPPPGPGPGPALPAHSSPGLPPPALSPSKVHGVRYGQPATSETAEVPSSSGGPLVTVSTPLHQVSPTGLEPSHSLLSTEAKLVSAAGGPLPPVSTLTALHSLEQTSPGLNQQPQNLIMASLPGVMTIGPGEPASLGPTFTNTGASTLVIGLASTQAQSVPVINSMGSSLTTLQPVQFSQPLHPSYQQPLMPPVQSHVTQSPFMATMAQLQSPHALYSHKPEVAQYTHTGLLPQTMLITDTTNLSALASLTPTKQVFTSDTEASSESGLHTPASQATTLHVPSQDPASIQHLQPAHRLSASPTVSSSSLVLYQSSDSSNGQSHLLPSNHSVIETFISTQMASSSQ

Target: HNF-1A DBD-TAD (His6-TEV-DBD-TAD construct, residues 83-631 of human hepatocyte nuclear factor 1α) (human) (UniProt P20823)
Test: SAXS; batch mode, DBD-TAD at ~2.5 mg/mL, 4 mM Tris pH 8.5, 100 mM NaCl, 1 mM TCEP, 10°C; molecular weight estimates by the Vc and SAXSMoW methods; both purified

HNF-1A DBD-TAD (His6-TEV-DBD-TAD construct, residues 83-631 of human hepatocyte nuclear factor 1α) (from UniProt P20823-1 83-631) (domain or fragment)
binding: no binding (tested: ~2.5 mg/mL)
